From publication PMC10221034 (2023)
Changes are numbered by the printed parent chain. These are yes or no findings as the source states them, for the method shown. Binding can be weak; no strength is given.

The chains behind the UniProt entries cited, without tags or fusion partners. Where a name states a change or a piece, a line headed by the entry shows the natural chain unless it says otherwise.
UniProt Q04JH4, whole entry, looked up, stated change not applied: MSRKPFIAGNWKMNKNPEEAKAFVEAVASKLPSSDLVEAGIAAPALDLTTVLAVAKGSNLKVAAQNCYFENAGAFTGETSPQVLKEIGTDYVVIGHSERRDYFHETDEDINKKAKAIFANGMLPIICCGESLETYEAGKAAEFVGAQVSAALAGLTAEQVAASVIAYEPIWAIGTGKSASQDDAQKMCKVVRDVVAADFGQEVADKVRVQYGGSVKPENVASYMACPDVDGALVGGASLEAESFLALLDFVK

Tests used:
Assay in all cases: far-Western, overlay or dot blot; rTpiA (200 ng) separated by SDS-PAGE and transferred onto PVDF; membrane blocked with 5% BSA in TBST, incubated 90 min with 30 µg/mL plasminogen at 25 °C; bound plasminogen probed with rabbit polyclonal anti-plasminogen and HRP secondary antibody; both purified
[1] = target: T1, rTpiA K12A (Streptococcus pneumoniae D39) (UniProt Q04JH4)
T1 sequence: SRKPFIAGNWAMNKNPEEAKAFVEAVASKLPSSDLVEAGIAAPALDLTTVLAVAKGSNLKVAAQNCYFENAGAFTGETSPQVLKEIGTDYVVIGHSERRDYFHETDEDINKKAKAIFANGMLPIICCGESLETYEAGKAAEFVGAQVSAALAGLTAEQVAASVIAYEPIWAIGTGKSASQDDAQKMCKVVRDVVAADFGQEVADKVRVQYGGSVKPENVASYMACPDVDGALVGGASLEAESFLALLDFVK

[2] = target: T2, rTpiA K30A (Streptococcus pneumoniae D39) (UniProt Q04JH4)
T2 sequence: T1 sequence with A11K, K29A

[3] = target: T3, rTpiA K21A (Streptococcus pneumoniae D39) (UniProt Q04JH4)
T3 sequence: T1 sequence with A11K, K20A

[4] = target: T4, rTpiA K61A (Streptococcus pneumoniae D39) (UniProt Q04JH4)
T4 sequence: T1 sequence with A11K, K60A

[5] = target: T5, rTpiA K206A (Streptococcus pneumoniae D39) (UniProt Q04JH4)
T5 sequence: T1 sequence with A11K, K205A

[6] = target: T6, rTpiA K139A (Streptococcus pneumoniae D39) (UniProt Q04JH4)
T6 sequence: T1 sequence with A11K, K138A

[7] = target: T7, rTpiA K112A, K113A, K115A (Streptococcus pneumoniae D39) (UniProt Q04JH4)
T7 sequence: T1 sequence with A11K, K111A, K112A, K114A

Measured: binding

human plasma plasminogen
binds: all assays above
